Test results as given in PubChem BioAssay AID504834 (National Center for Advancing Translational Sciences (NCATS), 2011).
Hit rate of the full screen: of about 320,000 compounds, about 22,000 (6.9%) were called active. Inconclusive results, whose numbers are uncertain, are shown with a selection of clear calls. Calls follow the shape of the dose curve; as a rule, active = well fitted inhibition curve with a large enough effect; inconclusive = small, poorly fitted or top-dose-only effect, or another doubt; inactive = no such curve, though single readings can be large or run the other way. Potencies of inconclusive entries are doubtful fits and often do not repeat.
% is scaled to controls: 0 for no effect and ±100 for the full control effect; potency is read from the fitted curve at half-maximal effect.

Assay: Primary qHTS for delayed death inhibitors of the malarial parasite plastid, 96 hour incubation
Details: P. falciparum luciferase reporter growth; series mostly up to 28.7 µM; activity change, negative = inhibition: at the top concentration
How it was run: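 Compounds incubated with erythrocytes infected by luciferase-expressing P. falciparum (2% hematocrit, 0.05% parasitemia final) for 96 hours, 37 C in 5% CO2. Growth inhibition scored as decreased luciferase luminescence.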
In the case of `Cc1sc2ncnc(N3CCC(C(=O)Oc4cccc(Cl)c4Cl)CC3)c2c1C`, the “activity change, negative = inhibition” value is reported as inactive: 14.5%. For `NC(=O)CC(NC(=O)c1ccccc1)c1ccc(N2CCc3ccccc3C2)c([N+](=O)[O-])c1` (stereo not given), the Potency was inconclusive: 13.1 µM [inhibitor, single point]. In the case of `Cc1cccn2c(=O)c3cc(C(=O)N4COCC4(C)C)n(C)c3nc12`, the Potency is reported as inconclusive: 18.5 µM [inhibitor, single point]. For `CSC(=NC#N)N1CCN(C(c2ccccc2)c2ccccc2)CC1`, the Potency was inconclusive: 10.4 µM [inhibitor, single point]. In the case of `Cc1ccc(C)c(C(=O)CCC(=O)N2CCN(c3cccc(C(F)(F)F)c3)CC2)c1`, the Potency is reported as inconclusive: 18.5 µM [inhibitor, partial curve, poor fit]. With `COc1ccc(CNn2cnnc2)c(O)c1` the Potency was inconclusive: 13.1 µM [inhibitor, single point]. In the case of `COc1ccccc1N1CCN(C2CCN(C(=O)c3cccs3)CC2)CC1`, the “activity change, negative = inhibition” value is reported as inactive: -3.92%. In the case of `C=CCn1cn[nH]c1=S`, the “activity change, negative = inhibition” value is reported as inactive: 34.9%. With `Cc1oc(-c2ccccc2F)nc1CS(=O)(=O)CC(=O)N1CCCCCC1` the Potency was inconclusive: 18.5 µM [inhibitor, single point]. With `CC(=O)c1c(C)[nH]c(C(=O)CN2CCN(S(=O)(=O)c3ccccc3[N+](=O)[O-])CC2)c1C` the Potency was active: 10.4 µM. For `CCCCN(C)C(=O)C(Cc1ccccc1)NS(=O)(=O)c1ccc2c(c1)c(=O)n(C)c(=O)n2C` (stereo not given), the Potency was inconclusive: 10.4 µM [inhibitor, single point]. For `COc1cccc2c1C(=O)c1c(O)c3c(c(O)c1C2=O)C[C@@](O)(C(=O)CO)C[C@@H]3OC1CC(N)C(O)C(C)O1` (stereo not given in full), the Potency was active: 0.0675 µM. For `CC1CN(C(=O)c2ccccc2OCc2ccc(Cl)cc2Cl)CC(C)O1` (stereo not given), the Potency was inconclusive: 0.262 µM [inhibitor, partial curve, poor fit]. With `CCCNC(=O)c1onc(CSc2ccc(F)cc2)c1C(=O)NCCC` the Potency was inconclusive: 11.7 µM [inhibitor, single point]. With `COc1cccc(C(=O)CN2CCC(NC(=O)NC3CCCCC3)CC2)c1` the Potency was active: 14.7 µM. In the case of `CC(Sc1ccc(S(=O)(=O)N2CCCC2)cn1)C(N)=O` (stereo not given), the “activity change, negative = inhibition” value is reported as inactive: -13.4%. With `C#CCNC(=O)C1=C[C@@H](C2CCCCC2)[C@H](CCCO)[C@@H](OCC)O1` the Potency was inconclusive: 11.7 µM [inhibitor, single point]. With `CC(Oc1cccc([N+](=O)[O-])c1)C(=O)NCCC1=CCCCC1` (stereo not given) the Potency was inconclusive: 18.5 µM [inhibitor, single point]. With `COCCn1c(=O)[nH]c2cc(C(=O)NCc3cccnc3)ccc2c1=O` the Potency was inconclusive: 18.5 µM [inhibitor, single point]. With `Cc1ccc(-n2cc(CNC(C)c3cnn(C)c3C)c(-c3ccc(F)cc3)n2)cc1` (stereo not given) the Potency was inconclusive: 18.5 µM [inhibitor, single point]. With `COc1ccccc1C(=O)Nc1ccc2c(c1)CN(Cc1cnc(C)s1)CC2` the Potency was inconclusive: 0.586 µM [inhibitor, full curve, poor fit]. For `COc1ccc(-c2[nH]ncc2CN2CCN(Cc3cccs3)CC2)cc1F`, the Potency was inconclusive: 18.5 µM [inhibitor, single point]. In the case of `CC(C)c1cc(C(=O)Nc2cc(Cl)ccc2O)no1`, the Potency is reported as inconclusive: 9.28 µM [inhibitor, partial curve, poor fit]. For `COC(=O)/C(C#N)=C/c1ccc(N2CCOCC2)c([N+](=O)[O-])c1`, the “activity change, negative = inhibition” value was inactive: 2.56%. With `COC(=O)c1ccccc1C(=O)N(Cc1cccnc1)CC1CCCN(C2CCCCC2)C1` (stereo not given) the Potency was active: 13.1 µM. For `Cc1ccc(-c2nnn(CC(=O)N(Cc3ccccc3F)C(C(=O)NC3CCCC3)c3ccncc3)n2)o1` (stereo not given), the Potency was inconclusive: 0.0522 µM [inhibitor, full curve, poor fit]. With `CCOC(=O)/C(C#N)=C/C=C1/C=CC=CN1C` the “activity change, negative = inhibition” value was inactive: 52.4%. With `Cc1ccc(CN2CC(C(=O)NNC(=O)Cn3ccc(C(F)(F)F)n3)CC2=O)cc1` (stereo not given) the “activity change, negative = inhibition” value was inactive: -27.3%. In the case of `COc1ccccc1NC(=O)Cn1c(C)nc2c(sc(=S)n2Cc2ccco2)c1=O`, the Potency is reported as inconclusive: 13.1 µM [inhibitor, partial curve, poor fit]. With `N#Cc1ccc(CN2CCN(C(=O)c3cn(Cc4ccccc4)nc3-c3cccnc3)CC2)cc1` the Potency was inconclusive: 0.828 µM [inhibitor, partial curve, poor fit]. With `COc1ccc(N2CCN(C(=O)C(Cc3ccccc3)n3cccc3)CC2)cc1` (stereo not given) the “activity change, negative = inhibition” value was inactive: -3.16%. For `CCCCn1c(N)c(N(C(=O)CSc2nnnn2-c2ccccc2C)C2CCCC2)c(=O)[nH]c1=O`, the Potency was inconclusive: 11.7 µM [inhibitor, partial curve, poor fit]. For `Cc1ccc(S(=O)(=O)N2CCCCC2)cc1NC(=O)CCNC(=O)c1ccc([N+](=O)[O-])cc1`, the Potency was inconclusive: 11.7 µM [inhibitor, single point]. With `Nn1c(SCC(=O)N2CCOCC2)nnc1C1CC1` the “activity change, negative = inhibition” value was inactive: 9.35%. For `CC(=O)c1cn(Cc2ccccc2C#N)c2ccccc12`, the Potency was inconclusive: 11.7 µM [inhibitor, partial curve]. With `COc1ccc(OCC(=O)N/N=C2\CCCCc3ccccc32)cc1` the Potency was inconclusive: 18.5 µM [inhibitor, single point]. In the case of `CCC(=O)c1ccc(OC(=O)N(C)c2ccccc2)cc1`, the “activity change, negative = inhibition” value is reported as inactive: 4.11%. In the case of `CCOC(=O)[C@@H]1[C@H]2COc3ccc(Br)cc3[C@H]2N2C(=O)N(c3ccc(Br)cc3)C(=O)[C@]12C`, the Potency is reported as inconclusive: 18.5 µM [inhibitor, single point]. For `COc1ccc(Nc2ncc(C(=O)N3CCN(Cc4ccccc4)CC3)c3ccccc23)cc1`, the Potency was inconclusive: 18.5 µM [inhibitor, single point]. With `O=C(CCCCn1c(=S)[nH]c2ccsc2c1=O)NCc1ccco1` the “activity change, negative = inhibition” value was inactive: -18.7%. With `CC(Sc1nnc(-c2ccc(O)cc2)o1)C(=O)Nc1cccc2ccccc12` (stereo not given) the “activity change, negative = inhibition” value was inactive: 28.2%. With `COc1ccc(CC(=O)Nc2ccccc2C(=O)NCCc2ccccc2)cc1` the Potency was active: 11.7 µM. With `CC1C[C@@]2(NC(=O)NC2=O)C(C)CN1C` (stereo not given in full) the Potency was inconclusive: 9.28 µM [inhibitor, single point]. In the case of `O=C(C1CCCN(Cc2nc(-c3ccc(Cl)cc3)no2)C1)N1CCOCC1` (stereo not given), the Potency is reported as inconclusive: 1.65 µM [inhibitor, full curve]. For `CCC(=NCc1cc(OC)cc(OC)c1)c1c(O)n(C)c(=O)n(C)c1=O`, the “activity change, negative = inhibition” value was inactive: 20.3%. With `COc1ccc(S(=O)(=O)N2CCCOC2CNC(=O)C(=O)NCCCN2CCOCC2)cc1` (stereo not given) the “activity change, negative = inhibition” value was inactive: -2.57%. For `CC(C)(C)C(=O)CSc1nc2c(c(-c3cccs3)c1C#N)CCC2`, the Potency was inconclusive: 11.7 µM [inhibitor, partial curve, poor fit]. For `Cc1cc(C(=O)Nc2ccc(Cl)cc2)c(C)n1Cc1cccs1`, the “activity change, negative = inhibition” value was inactive: 9.15%. For `COc1ccccc1-c1csc2ncnc(Sc3nnnn3C)c12`, the Potency was inconclusive: 1.65 µM [inhibitor, full curve]. With `COc1ccc2occ(NC(C)=O)c2c1` the “activity change, negative = inhibition” value was inactive: 62.5%. For `COc1ccccc1CNC(=O)C1(c2ccc(Cl)cc2)CC1`, the “activity change, negative = inhibition” value was inactive: 0.132%. With `O=C(Nc1ccccc1NC(=O)c1csnn1)c1csnn1` the “activity change, negative = inhibition” value was inactive: 53.1%. In the case of `O=C(NN=C1c2ccccc2-c2ccccc21)c1ccccc1`, the Potency is reported as active: 8.28 µM. For `O=C(COc1cccnc1[N+](=O)[O-])NCc1ccco1`, the “activity change, negative = inhibition” value was inactive: 28.6%. For `CCCc1nn(C)c(C(=O)Nc2cccc(CC)c2)c1Cl`, the “activity change, negative = inhibition” value was inactive: 58.3%. For `CCOC(=O)C1C(c2ccccc2)NC(=S)NC1(C)O` (stereo not given), the Potency was inconclusive: 18.5 µM [inhibitor, single point]. For `O=C(c1cc2c(s1)-c1ccccc1S(=O)(=O)C2)N1CCCC1`, the “activity change, negative = inhibition” value was inactive: 50.6%. With `O=C(Nc1ccccc1[N+](=O)[O-])C1(c2ccccc2)CCOCC1` the “activity change, negative = inhibition” value was inactive: -12.2%. For `COc1ccccc1C(=O)Nc1ccnn1C1CCN(C(=O)C2CCOC2)CC1` (stereo not given), the “activity change, negative = inhibition” value was inactive: 10%. With `Cc1cc(C)cc(OCC(=O)OCC(=O)N(C)CC(=O)Nc2ccc(F)cc2)c1` the Potency was inconclusive: 4.15 µM [inhibitor, single point]. In the case of `CN1C=CC=C/C1=C1\SC(=S)N(c2ccccc2)C1=O`, the Potency is reported as inconclusive: 0.0738 µM [inhibitor, full curve, poor fit]. With `CCOC(=O)N/N=C/C(Cl)=C/c1ccccc1` the Potency was inconclusive: 11.7 µM [inhibitor, single point]. With `COc1cc(NC(=O)CSc2nc(C)c(C)c(C)n2)cc(OC)c1` the “activity change, negative = inhibition” value was inactive: -21.4%. In the case of `CC(C)[C@H](NC(=O)N1c2ccccc2NC(=O)[C@@H]1C(C)C)C(=O)N[C@@H](C(=O)O)c1ccccc1`, the “activity change, negative = inhibition” value is reported as inactive: -17.5%. With `CC(C)NC(=O)C(c1ccc(F)cc1)N(C(=O)CCC(=O)Nc1ccccn1)c1cccc(F)c1` (stereo not given) the “activity change, negative = inhibition” value was inactive: -0.181%. In the case of `CCCOP(=O)(c1ccccc1)c1ccccc1`, the “activity change, negative = inhibition” value is reported as inactive: 14.5%. For `Nc1nc(NC(=O)c2ccco2)nn1-c1ccccc1`, the “activity change, negative = inhibition” value was inactive: 20.3%. With `Cc1nc(-c2ccccc2)sc1-c1nc(-c2cccnc2)ncc1S(=O)(=O)c1ccccc1` the Potency was inconclusive: 2.33 µM [inhibitor, full curve]. For `O=C(COC(=O)c1ccc(Cl)nc1)c1ccc2c(c1)OCCO2`, the “activity change, negative = inhibition” value was inactive: 38.4%. With `COc1ccc(N2CCN(C(=O)CSc3nnc(Cn4nnc5ccccc54)n3C)CC2)cc1` the Potency was inconclusive: 11.7 µM [inhibitor, single point]. In the case of `CC(C)c1nnc(NC(=O)CSc2nnc(NC(=O)c3c(F)cccc3F)s2)s1`, the “activity change, negative = inhibition” value is reported as inactive: 0%. For `CCSc1ccccc1C(=O)NCc1ccc2c(c1)OCO2`, the “activity change, negative = inhibition” value was inactive: -25%. In the case of `Cc1ccc2c(c1)N(C(=O)CCC(=O)N1CCC3(CC1)OCCO3)CC(C)O2` (stereo not given), the Potency is reported as inconclusive: 16.5 µM [inhibitor, single point]. With `CCOc1ccc(N2C(=O)S/C(=C\c3cccn3C)C2=O)cc1` the Potency was active: 2.94 µM. In the case of `CCOP(=O)(CC(C(C)=O)C(O)c1ccccc1)OCC` (stereo not given), the Potency is reported as inconclusive: 18.5 µM [inhibitor, single point].
